Experimental data as given in US20040058056A1, “Drug diffusion coatings, applications and methods” (priority 2003, published 2004).
For at least one compound, name, drawing or mass did not settle the structure.

Assay: Elution of rapamycin from TMCTS plasma-coated stainless steel coupons in porcine serum
Format: physicochemical
Procedure: The elution time of rapamycin from the surface of stainless steel coupons was evaluated as a function of plasma deposition time. One side of stainless steel coupons was coated with 100±10 μg of rapamycin dissolved in chloroform (0.2%, w/v). After air drying at room temperature, the coated surfaces were plasma coated with TMCTS. The plasma was generated at 83 W and 55 mTorr with a mass flow rate of 84 sccm at various time lengths between 30 and 300 seconds. The coated coupons were extracted with porcine serum mixed with 0.02% NaN3 as the preservative at 37° C. The remaining amounts of the drug on the coupon was extracted with 2 ml of methanol for 2 hours at room temperature and assayed by HPLC at 277 nm, utilizing an HPLC system calibrated with known amounts of rapamycin.

CO[C@H]1C[C@@H]2CC[C@@H](C)[C@@](O)(O2)C(=O)C(=O)N2CCCC[C@H]2C(=O)O[C@H]([C@H](C)C[C@@H]2CC[C@@H](O)[C@H](OC)C2)CC(=O)[C@H](C)/C=C(\C)[C@@H](O)[C@@H](OC)C(=O)[C@H](C)C[C@H](C)/C=C/C=C/C=C/1C [rapamycin]
Remained on Coupon (0 (uncoated) TMCTS deposition, elution time 0 hours): 91 ± 10 µg | Remained on Coupon (0 (uncoated) TMCTS deposition, elution time 17 hours, porcine serum 37° C.): 0 µg | Remained on Coupon (TMCTS deposition 30 seconds, elution time 64 hours, porcine serum 37° C.): 2.4 µg | Remained on Coupon (TMCTS deposition 60 seconds, elution time 64 hours, porcine serum 37° C.): 30.2 ± 6.8 µg | Remained on Coupon (TMCTS deposition 120 seconds, elution time 47.5 hours, porcine serum 37° C.): 61.6 ± 14.6 µg | Remained on Coupon (TMCTS deposition 180 seconds, elution time 24 hours, porcine serum 37° C.): 69.4 ± 15.6 µg | Remained on Coupon (TMCTS deposition 240 seconds, elution time 24 hours, porcine serum 37° C.): 85.2 ± 1.2 µg | Remained on Coupon (TMCTS deposition 300 seconds, elution time 47.5 hours, porcine serum 37° C.): 83.6 ± 4.2 µg
